Values from PubChem BioAssay AID1259425 (University of Nebraska Medical Center, 2018)
In all, the deposit lists about 14,000 reagents; this is a part drawn at random. Not stated in the record: the time to read-out.

Test: 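Compare each knockdown with KSR1 silencing using changes in marker transcripts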 (primary screen)
Cell system: HCT116 human colon cancer cells
Reagent: siRNA pool against human genes, 50 nM siRNA
Detection: 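mRNA of six signature genes measured together by branched-DNA assay after 50 nM siRNA pool, blank removed, divided by geometric mean of two housekeeping genes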
Direction: BNIP3L mRNA: higher = more BNIP3L transcript after knockdown; NDRG1 mRNA: higher = more NDRG1 transcript after knockdown; BNIP3 mRNA: higher = more BNIP3 transcript after knockdown; ALDOC mRNA: higher = more ALDOC transcript after knockdown; ACSL5 mRNA: higher = more ACSL5 transcript after knockdown

The first 2 records as a preview:
gene symbol	BNIP3L mRNA, set 1	NDRG1 mRNA, set 1	BNIP3 mRNA, set 1	ALDOC mRNA, set 1	ACSL5 mRNA, set 1
CEP152	0.0666	0.252	0.379	0.0162	0.134
MAP3K5	0.141	0.102	0.259	0.0152	0.188

The list itself, from the start:
gene symbol	BNIP3L mRNA, set 1	NDRG1 mRNA, set 1	BNIP3 mRNA, set 1	ALDOC mRNA, set 1	ACSL5 mRNA, set 1
CEP152	0.0666	0.252	0.379	0.0162	0.134
MAP3K5	0.141	0.102	0.259	0.0152	0.188
MRTFB	0.0888	0.0881	0.192	0.00955	0.285
LRRC23	0.141	1.2	0.361	0.0558	0.492
TBC1D13	0.0903	0.223	0.268	0.0153	0.282
PLA2G2E	0.0932	0.0858	0.392	0.0376	0.148
ALDH1A3	0.0946	0.223	0.373	0.021	0.31
MAPK14	0.0842	0.0706	0.348	0.0167	0.193
GALNT5	0.101	0.131	0.22	0.0197	0.157
CD93	0.0529	0.0599	0.22	0.0243	0.11
ATAT1	0.133	0.309	0.294	0.0362	0.254
GRB7	0.182	0.223	0.295	0.0498	0.127
TRPM4	0.0628	0.0782	0.252	0.0293	0.0925
SRY	0.243	0.229	0.367	0.0168	0.215
REG3A	0.14	0.162	0.42	0.0132	0.348
SEC24C	0.162	0.163	0.22	0.0655	0.108
CMBL	0.12	0.182	0.189	0.04	0.175
TNPO1	0.17	0.157	0.247	0.032	0.0569
MGAT4C	0.207	0.52	0.603	0.0414	0.198
RLIM	0.138	0.146	0.295	0.01	0.152
